“And” between values parts separate entries of the source, which are not always exact repeats. Identical values can stand only once. Out of some 390,000 compounds screened, about 4,000 (1%) were called active. Inconclusive means that the source gave no clear call. Such entries were picked first, then a sample of the others. The call rests on the fitted dose curve; in most records, active means well fitted inhibition curve with a large enough effect; inconclusive means small, poorly fitted or top-dose-only effect, or another doubt; inactive means no such curve, though single readings can be large or run the other way. Potencies beside an inconclusive call are fits to weak or partial responses and may not hold up.
These molecules were tested against DNA polymerase iota (Homo sapiens) (UniProt Q9UNA4) (assay: qHTS for Inhibitors of Polymerase Iota). Conditions: Pol iota fluorescent replication assay, 10 min; series mostly up to 115 µM; activity, negative = inhibition: at the top concentration.
Summary of the method: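 Fluorescent replication assay read twice, at 0 min and 10 min after adding 50 nM (final) substrate. Enzyme (10 nM) and compounds were first incubated 15 min at room temperature; enzyme-free buffer wells were negative controls.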
Potency means the concentration at half of the fitted maximal effect.

Protein sequences, listed by entry. Tags and fused reporters are not part of them. Lines headed by an entry give the natural chain unless they say otherwise; changes in a name come on top.
UniProt Q9UNA4: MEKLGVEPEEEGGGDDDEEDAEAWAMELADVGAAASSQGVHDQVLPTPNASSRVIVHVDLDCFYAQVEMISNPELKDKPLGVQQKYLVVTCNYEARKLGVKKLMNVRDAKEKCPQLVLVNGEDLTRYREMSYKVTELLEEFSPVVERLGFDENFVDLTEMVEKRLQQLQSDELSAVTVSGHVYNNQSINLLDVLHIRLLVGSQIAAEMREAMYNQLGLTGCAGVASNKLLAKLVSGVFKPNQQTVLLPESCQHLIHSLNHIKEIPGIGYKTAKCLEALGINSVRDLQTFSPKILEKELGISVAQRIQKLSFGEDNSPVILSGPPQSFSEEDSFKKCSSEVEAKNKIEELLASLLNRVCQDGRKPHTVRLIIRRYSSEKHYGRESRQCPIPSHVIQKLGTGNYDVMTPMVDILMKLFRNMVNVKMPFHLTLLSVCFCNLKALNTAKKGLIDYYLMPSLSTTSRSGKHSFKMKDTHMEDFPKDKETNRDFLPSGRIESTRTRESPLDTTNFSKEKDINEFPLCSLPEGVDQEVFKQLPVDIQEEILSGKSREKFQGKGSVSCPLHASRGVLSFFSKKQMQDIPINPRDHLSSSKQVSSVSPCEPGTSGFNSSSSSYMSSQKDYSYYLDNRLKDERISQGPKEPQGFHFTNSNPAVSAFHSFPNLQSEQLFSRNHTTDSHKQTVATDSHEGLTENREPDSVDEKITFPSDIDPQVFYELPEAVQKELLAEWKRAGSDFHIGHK

Compound	Potency	activity, negative = inhibition
C#CCOCCOCCOCCNc1nc(N2CCN(C(=O)Cn3cc(CCCN=C(N)N)nn3)CC2)nc(N2CCN(C(=O)[C@H](C)n3cc(CCCN=C(N)N)nn3)CC2)n1	inconclusive: 15.8 µM [inhibitor, full curve, poor fit]	
Cc1cccc(N2CC(C(=O)Nc3nnc(SCC(=O)Nc4cc(C)on4)s3)CC2=O)c1 (stereo not drawn)	inconclusive: 22.4 µM [inhibitor, partial curve, poor fit]	
CCCSc1nnc2c(n1)OC(c1sccc1C)Nc1ccccc1-2 (stereo not drawn)	inconclusive: 39.8 µM [inhibitor, partial curve, poor fit]	
CCOc1[nH]c(/N=C/c2ccco2)c(C#N)c1C#N	inconclusive: 79.4 µM [inhibitor, partial curve] and inconclusive: 28.2 µM [inhibitor, full curve, poor fit]	
O=S1(=O)CCOC[C@H](Cc2ccccc2)N1Cc1cccc(C(F)(F)F)c1	inconclusive: 79.4 µM [inhibitor, partial curve, poor fit]	
CCOC(=O)[C@@H]1[C@H]2COc3ccccc3[C@@H]2N2C(=O)N(c3ccc(C(F)(F)F)cc3)C(=O)[C@]12C		inactive: -30.1%
CC(C)(C)N(Cc1ccccc1)C(=O)c1cccs1		inactive: 102%
Cc1ccc(S(=O)(=O)Cc2ccc(C(=O)N3CCc4ccccc4C3)o2)cc1	inconclusive: 35.5 µM [inhibitor, partial curve, poor fit]	
Cc1ccc(C(=O)N2NC(c3ccccc3F)C3C(=O)N(c4cccc(C)c4)C(=O)C32)cc1 (stereo not drawn)	inconclusive: 12.6 µM [inhibitor, partial curve, poor fit]	
Fc1cccc(C2NN=C(c3ccccc3)S2)c1 (stereo not drawn)	inconclusive: 100 µM [inhibitor, partial curve, poor fit]	
O=C(Cc1cc(=O)[nH][nH]1)N/N=C/c1cccc(Cl)c1Cl	inconclusive: 1.41 µM [inhibitor, full curve, poor fit]	
Nc1cc(C(=O)OCC(=O)c2ccc(CC(=O)N3CCOCC3)s2)ccc1Cl	active: 12.6 µM	
COC(=O)c1cc(O)cc(OC)c1C(=O)c1c(O)cc(C)cc1O	active: 70.8 µM	
Cc1cccc(NC(=O)c2sc(-n3nc(C)c(Cc4ccc5c(c4)OCO5)c3C)nc2C)c1C		inactive: 5.09%
O=c1[nH]c(-c2ccco2)nc2sc3c(c12)CCCC3	inconclusive: 89.1 µM [inhibitor, partial curve]	
COc1ccc(N(CC(=O)NC2CCCCC2)C(=O)CNC(=O)c2ccco2)cc1	inconclusive: 79.4 µM [inhibitor, partial curve, poor fit]	
NC(=S)N/N=C/c1ccc(/C=N/NC(N)=S)cc1	inconclusive: 79.4 µM [inhibitor, partial curve]	
CNc1c2cccc(C)c2nc2c(C(=O)NCCN(C)C)cccc12	active: 11.2 µM	
COc1ccc(-c2noc(CSc3nnc(C)n3-c3ccc(OC)cc3)n2)cc1		inactive: 26.9%
C=CCn1nc([N+](=O)[O-])nc1Sc1cccc2cccnc12		inactive: 22.5%
COCCNC(=S)Nc1ccc(S(=O)(=O)Nc2ncccn2)cc1	inconclusive: 89.1 µM [inhibitor, single point]	

Compound	Potency	activity, negative = inhibition
Cc1ccc2oc(=O)c(-c3ccc(O)cc3)c(C)c2c1	inconclusive: 89.1 µM [inhibitor, single point]	
CCc1ccc(O)c(-c2cc(C(=O)Nc3cccnc3)[nH]n2)c1	inconclusive: 0.891 µM [inhibitor, partial curve, poor fit]	
COC(=O)C(=O)Nc1nnc(COc2ccccc2)s1	inconclusive: 17.8 µM [inhibitor, partial curve, poor fit]	
CS(=O)(=O)Nc1ccc(OCc2ccccc2)cc1		inactive: 11%
O=C(/C=C/c1ccccc1F)c1cccc([N+](=O)[O-])c1	inconclusive: 10 µM [inhibitor, partial curve, poor fit]	
Fc1ccc(C2=NOC(c3nnc(-c4ccccc4)o3)C2)cc1 (stereo not drawn)	inconclusive: 79.4 µM [inhibitor, single point]	
CN1C(=O)C(Cl)(Cl)C(=O)c2ccccc21	inconclusive: 39.8 µM [inhibitor, single point]	
Cc1cc(Br)ccc1NC(=O)C1CCN(S(=O)(=O)c2cccc3nsnc23)CC1	inconclusive: 89.1 µM [inhibitor, single point]	
CC1(C)N([O-])C2=C(c3ccccc3C2=O)[N+](=O)C1(C)C	inconclusive: 12.6 µM [inhibitor, partial curve, poor fit]	
CN(C1CCCCC1)S(=O)(=O)c1ccc(Cl)c(C(=O)O)c1	inconclusive: 89.1 µM [inhibitor, single point]	
CCOc1ccc(CCNC(=O)c2cnc3sc(N4CCC(C)CC4)nn3c2=O)cc1	inconclusive: 89.1 µM [inhibitor, partial curve, poor fit]	
O=C1COc2cc(S(=O)(=O)NCc3ccco3)c(Cl)cc2N1	inconclusive: 89.1 µM [inhibitor, single point]	
O=C(COC(=O)/C=C/c1ccccc1Cl)NC1CCCCCC1	inconclusive: 100 µM [inhibitor, single point]	
OC(COCCC12CC3CC(CC(C3)C1)C2)CN1CCCCC1 (stereo not drawn)	inconclusive: 70.8 µM [inhibitor, partial curve, poor fit]	
COc1c2c(c(C)c3c1C(=O)OC3)O[C@@]1(C)CC[C@@]3(O)C(C)(C)OC(=O)CC[C@]3(C)[C@H]1C2	inconclusive: 31.6 µM [inhibitor, single point]	
O=C(NCCc1ccccc1)c1nc2nc(-c3cccs3)cc(C(F)(F)F)n2n1	inconclusive: 39.8 µM [inhibitor, single point]	
CC(=O)c1cccc(OCc2cc(C(=O)N3CCC(N4CCCCC4)CC3)no2)c1	inconclusive: 89.1 µM [inhibitor, single point]	
N#CC1=C(N)N(c2ccccc2)C2=C(C(=O)CCC2)C1c1ccsc1 (stereo not drawn)	inconclusive: 14.1 µM [inhibitor, single point]	
O=[N+]([O-])c1cc(CSC2=NCCN2)ccc1O	inconclusive: 25.1 µM [inhibitor, full curve, poor fit]	
O=C1S/C(=C\c2ccc(N3CCOCC3)o2)C(=O)N1c1ccccc1	inconclusive: 0.794 µM [inhibitor, full curve, poor fit]	
Cc1cccc(CN2CCC(CNC(=O)c3c(C)oc4ncnc(N5CCCCC5)c34)CC2)c1		inactive: 2.73%

Compound	Potency	activity, negative = inhibition
CCCC/C=C/[C@H](c1ccccc1)[C@H](CO)Cc1cnc2ccccc2c1		inactive: -20.5%
COC(=O)C1=C(C)N(Cc2ccccc2)C(=O)N[C@H]1c1ccccc1	inconclusive: 56.2 µM [inhibitor, partial curve, poor fit]	
CCN(CC)S(=O)(=O)c1cccc2cc(C(=O)O)c(O)cc12	inconclusive: 39.8 µM [inhibitor, single point]	
Cc1noc(C)c1-c1csc(N2CCC(C(N)=O)CC2)n1	inconclusive: 25.1 µM [inhibitor, single point]	
CCn1c(=O)sc2cc(NS(=O)(=O)c3ccc(F)c(C)c3)ccc21		inactive: 30.1%
Cc1ccc(CSc2cn(CC(=O)N3CCCC3)c3ccccc23)cc1	inconclusive: 89.1 µM [inhibitor, single point]	
O=C(O)/C=C/C(=O)c1ccc2c(c1)NC(=O)CO2	inconclusive: 17.8 µM [inhibitor, partial curve, poor fit]	
CC1(OC(=O)c2ccc(Cl)nc2)C(=O)C=C2C=C3CCCN3C=C2C1=O (stereo not drawn)	inconclusive: 7.08 µM [inhibitor, full curve, poor fit]	
O=C(Nc1ccc(F)cc1)NC1(C(=O)NCc2ccco2)CCCCC1	inconclusive: 35.5 µM [inhibitor, partial curve, poor fit]	
COc1ccc(-c2csc(N(CCCN3CCOCC3)C(=O)CCl)n2)cc1	inconclusive: 17.8 µM [inhibitor, single point]	
CC(=O)Nc1cc(OC(C)=O)c2nonc2c1OC(C)=O	active: 0.794 µM	
Cc1ccc(-c2nc(SCCOc3ccccc3C)n3[nH]c(=O)cc3n2)cc1		inactive: -2.5%
CN(C)c1ccc(/C=C/c2ccnc3ccccc23)c(N)c1		inactive: -6.02%
CC(C)N(C(=O)[C@H]1C[C@H](CC(=O)NCCCN(C)C)C(=O)N2CCc3c([nH]c4cc(CCC(=O)N(C)C)ccc34)[C@]12C)C(C)C	inconclusive: 25.1 µM [inhibitor, single point]	
CCOc1ccc(/C(O)=C/C(=O)C(=O)Nc2ccc(S(=O)(=O)NC(C)=O)cc2)cc1	inconclusive: 112 µM [inhibitor, partial curve, poor fit]	
O=C(CCC(=O)N1CCOc2ccc(Cl)cc21)NCCCN1CCN(c2ccccc2F)CC1		inactive: 18.5%
O=C(COc1ccccc1Cl)Nc1ccc(NC(=O)c2ccco2)cc1	inconclusive: 14.1 µM [inhibitor, partial curve, poor fit]	
CC(C)CCNC(=O)c1c[nH]c2ccc(S(=O)(=O)N3CCC4(CC3)OCCO4)cc2c1=O		inactive: 6.51%
CCCc1cc(=O)n(-c2nc3ccccc3s2)[nH]1	inconclusive: 89.1 µM [inhibitor, single point]	
CC1=NN(c2ccccc2)C(=O)/C1=C\N1CC(C)OC(C)C1 (stereo not drawn)	inconclusive: 5.01 µM [inhibitor, full curve, poor fit]	
Cc1ccc(S(=O)(=O)/N=C2/C=C(C3C(=O)CC(C)(C)CC3=O)C(=O)c3ccccc32)cc1	inconclusive: 79.4 µM [inhibitor, partial curve]	
